Results are given in words; binding and its absence hold for the method and conditions named. Binding seen in cells or lysates may run through a third protein. A yes stands for co-enrichment or nearness to the bait. Other partners may have been found.

By UniProt entry, the sequences of proteins in these tests, tags left out.
UniProt O14744: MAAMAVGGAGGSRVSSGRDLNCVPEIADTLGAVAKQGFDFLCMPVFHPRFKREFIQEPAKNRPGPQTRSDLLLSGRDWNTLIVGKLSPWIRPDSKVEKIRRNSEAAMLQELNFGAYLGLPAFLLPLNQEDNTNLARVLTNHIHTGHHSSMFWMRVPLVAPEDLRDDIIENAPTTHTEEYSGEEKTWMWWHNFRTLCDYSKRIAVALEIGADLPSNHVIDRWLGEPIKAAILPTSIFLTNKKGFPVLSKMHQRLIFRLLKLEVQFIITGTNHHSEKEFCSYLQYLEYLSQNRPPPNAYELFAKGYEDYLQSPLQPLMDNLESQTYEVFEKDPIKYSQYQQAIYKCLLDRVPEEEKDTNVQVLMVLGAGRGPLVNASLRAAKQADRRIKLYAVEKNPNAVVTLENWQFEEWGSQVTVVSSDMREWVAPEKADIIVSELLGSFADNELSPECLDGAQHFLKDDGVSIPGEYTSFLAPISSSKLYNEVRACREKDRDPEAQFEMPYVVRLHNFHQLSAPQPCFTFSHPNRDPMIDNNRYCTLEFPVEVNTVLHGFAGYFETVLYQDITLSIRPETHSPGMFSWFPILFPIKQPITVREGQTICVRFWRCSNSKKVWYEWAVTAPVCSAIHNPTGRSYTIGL
UniProt O95785: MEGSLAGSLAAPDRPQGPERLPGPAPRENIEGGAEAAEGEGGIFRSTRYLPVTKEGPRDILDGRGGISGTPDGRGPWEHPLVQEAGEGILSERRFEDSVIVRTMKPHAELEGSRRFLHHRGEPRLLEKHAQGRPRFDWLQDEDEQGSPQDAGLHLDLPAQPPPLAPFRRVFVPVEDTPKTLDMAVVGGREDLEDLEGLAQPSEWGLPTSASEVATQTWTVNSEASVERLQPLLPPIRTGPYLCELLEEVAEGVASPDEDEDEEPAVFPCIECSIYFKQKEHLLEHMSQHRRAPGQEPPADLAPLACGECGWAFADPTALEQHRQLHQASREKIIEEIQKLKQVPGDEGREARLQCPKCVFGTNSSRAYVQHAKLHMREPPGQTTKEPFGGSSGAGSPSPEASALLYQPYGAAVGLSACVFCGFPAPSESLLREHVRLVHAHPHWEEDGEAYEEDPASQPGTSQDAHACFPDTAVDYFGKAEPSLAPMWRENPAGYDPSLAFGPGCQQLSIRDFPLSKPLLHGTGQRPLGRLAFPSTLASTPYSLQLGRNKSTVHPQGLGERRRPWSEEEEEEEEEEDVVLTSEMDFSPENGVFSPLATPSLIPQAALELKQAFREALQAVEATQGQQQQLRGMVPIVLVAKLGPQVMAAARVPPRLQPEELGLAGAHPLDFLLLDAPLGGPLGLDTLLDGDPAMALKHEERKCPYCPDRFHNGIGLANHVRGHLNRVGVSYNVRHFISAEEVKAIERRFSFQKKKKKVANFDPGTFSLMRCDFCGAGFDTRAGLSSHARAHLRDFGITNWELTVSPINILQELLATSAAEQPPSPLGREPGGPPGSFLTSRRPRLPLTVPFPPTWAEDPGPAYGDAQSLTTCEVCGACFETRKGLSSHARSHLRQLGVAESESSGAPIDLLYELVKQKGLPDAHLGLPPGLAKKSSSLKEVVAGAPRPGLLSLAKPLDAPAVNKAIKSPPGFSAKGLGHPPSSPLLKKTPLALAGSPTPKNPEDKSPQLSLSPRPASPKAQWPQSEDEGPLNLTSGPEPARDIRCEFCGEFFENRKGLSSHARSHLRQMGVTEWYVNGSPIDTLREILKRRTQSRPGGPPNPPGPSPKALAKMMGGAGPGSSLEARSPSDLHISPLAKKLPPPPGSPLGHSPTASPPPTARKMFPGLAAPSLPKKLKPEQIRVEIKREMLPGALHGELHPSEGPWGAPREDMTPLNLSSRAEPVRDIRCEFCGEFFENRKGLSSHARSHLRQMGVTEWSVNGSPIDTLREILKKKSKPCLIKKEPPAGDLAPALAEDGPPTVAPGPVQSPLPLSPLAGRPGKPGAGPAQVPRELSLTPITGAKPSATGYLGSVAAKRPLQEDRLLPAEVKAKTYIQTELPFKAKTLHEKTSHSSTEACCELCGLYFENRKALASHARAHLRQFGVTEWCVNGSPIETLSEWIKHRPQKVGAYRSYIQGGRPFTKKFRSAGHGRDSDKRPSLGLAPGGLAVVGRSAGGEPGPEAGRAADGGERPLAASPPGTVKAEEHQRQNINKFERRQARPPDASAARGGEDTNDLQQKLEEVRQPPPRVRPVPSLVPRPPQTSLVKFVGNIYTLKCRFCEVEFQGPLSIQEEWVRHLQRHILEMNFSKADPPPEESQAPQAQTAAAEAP
UniProt P11171: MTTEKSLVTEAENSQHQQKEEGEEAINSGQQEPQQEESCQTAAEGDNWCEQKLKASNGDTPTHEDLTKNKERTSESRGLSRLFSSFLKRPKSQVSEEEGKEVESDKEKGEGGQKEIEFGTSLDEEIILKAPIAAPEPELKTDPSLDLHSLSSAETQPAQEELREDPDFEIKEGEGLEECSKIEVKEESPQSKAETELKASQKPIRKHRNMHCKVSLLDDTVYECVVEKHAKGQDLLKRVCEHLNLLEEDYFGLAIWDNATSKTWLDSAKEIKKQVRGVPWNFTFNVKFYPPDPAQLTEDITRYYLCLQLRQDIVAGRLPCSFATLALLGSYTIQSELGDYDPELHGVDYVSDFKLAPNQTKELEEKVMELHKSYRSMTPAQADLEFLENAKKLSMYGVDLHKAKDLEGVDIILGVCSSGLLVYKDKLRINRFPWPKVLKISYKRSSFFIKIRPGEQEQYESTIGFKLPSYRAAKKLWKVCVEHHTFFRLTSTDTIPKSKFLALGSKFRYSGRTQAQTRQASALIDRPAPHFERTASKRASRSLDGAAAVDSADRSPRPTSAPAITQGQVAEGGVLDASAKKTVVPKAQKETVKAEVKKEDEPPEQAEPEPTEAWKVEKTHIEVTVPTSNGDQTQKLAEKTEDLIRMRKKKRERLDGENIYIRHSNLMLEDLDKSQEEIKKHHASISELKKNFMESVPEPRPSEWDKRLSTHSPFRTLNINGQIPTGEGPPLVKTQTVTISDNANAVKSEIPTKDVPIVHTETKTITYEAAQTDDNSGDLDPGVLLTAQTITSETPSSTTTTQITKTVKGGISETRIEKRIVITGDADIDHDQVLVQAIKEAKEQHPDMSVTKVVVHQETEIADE

Consider two substances from doi:10.1101/2022.01.20.477145.

In this test the target is protein arginine methyltransferase PRMT5 (human (endogenous in KMS11)) (UniProt O14744). Briefly: affinity purification with mass spectrometry.

For the substance “zinc finger protein WIZ (from UniProt O95785 1-1651)”, the binding entry is “binds”.
On to EPB41 (from UniProt P11171 1-864), for which the binding entry is “binds”.
